Source: paper PMC10897415
Results are given in words; binding and its absence hold for the method and conditions named. Binding seen in cells or lysates may run through a third protein. Some binding calls cover weakened binding; strength is not graded here. Tags and fused reporters may be left off the sequences shown.

Amino acid sequences for entries named in this document (tags omitted). Residues count along the entry.
UniProt P13196, residues 57-640: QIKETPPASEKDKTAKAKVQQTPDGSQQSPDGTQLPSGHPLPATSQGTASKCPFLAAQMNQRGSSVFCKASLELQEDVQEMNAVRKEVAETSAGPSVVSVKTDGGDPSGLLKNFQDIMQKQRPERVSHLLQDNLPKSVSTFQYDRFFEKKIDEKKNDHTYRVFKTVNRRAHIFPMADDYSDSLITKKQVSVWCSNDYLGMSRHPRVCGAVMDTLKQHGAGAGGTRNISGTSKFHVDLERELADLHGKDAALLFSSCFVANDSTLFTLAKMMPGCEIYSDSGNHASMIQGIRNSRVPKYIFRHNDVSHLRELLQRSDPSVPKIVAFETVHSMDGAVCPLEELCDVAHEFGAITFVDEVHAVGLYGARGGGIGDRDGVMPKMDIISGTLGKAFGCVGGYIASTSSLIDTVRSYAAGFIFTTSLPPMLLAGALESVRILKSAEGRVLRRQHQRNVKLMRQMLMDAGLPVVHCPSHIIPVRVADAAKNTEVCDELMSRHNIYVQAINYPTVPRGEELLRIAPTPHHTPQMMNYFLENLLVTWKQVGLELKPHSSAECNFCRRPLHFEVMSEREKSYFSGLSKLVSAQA

Columns and labels:
Experiment in all cases: pull-down; HEK293T cells cotransfected with the SFB-tagged enzyme and Myc-tagged NME4 or mNME4; lysates in NETN buffer (20 mM Tris-HCl pH 8.0, 100 mM NaCl, 1 mM EDTA, 0.5% Nonidet P-40) incubated with S beads 2 h at 4 °C; blots with anti-Flag and anti-Myc
[1] = target: T1, SFB-tagged NUDT19 (human) (UniProt A8MXV4)
T1 sequence: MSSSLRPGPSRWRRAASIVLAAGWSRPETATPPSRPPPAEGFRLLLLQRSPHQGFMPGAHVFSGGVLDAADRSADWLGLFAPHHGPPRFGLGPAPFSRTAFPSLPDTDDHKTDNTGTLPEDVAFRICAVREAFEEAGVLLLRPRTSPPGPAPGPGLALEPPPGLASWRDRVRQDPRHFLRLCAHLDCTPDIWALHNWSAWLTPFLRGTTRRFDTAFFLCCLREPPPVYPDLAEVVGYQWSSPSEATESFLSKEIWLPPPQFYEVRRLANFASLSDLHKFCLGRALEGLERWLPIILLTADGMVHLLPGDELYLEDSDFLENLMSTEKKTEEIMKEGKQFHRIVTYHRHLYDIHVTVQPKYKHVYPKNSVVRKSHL

[2] = target: T2, SFB-tagged CRAT (human) (UniProt P43155)
T2 sequence: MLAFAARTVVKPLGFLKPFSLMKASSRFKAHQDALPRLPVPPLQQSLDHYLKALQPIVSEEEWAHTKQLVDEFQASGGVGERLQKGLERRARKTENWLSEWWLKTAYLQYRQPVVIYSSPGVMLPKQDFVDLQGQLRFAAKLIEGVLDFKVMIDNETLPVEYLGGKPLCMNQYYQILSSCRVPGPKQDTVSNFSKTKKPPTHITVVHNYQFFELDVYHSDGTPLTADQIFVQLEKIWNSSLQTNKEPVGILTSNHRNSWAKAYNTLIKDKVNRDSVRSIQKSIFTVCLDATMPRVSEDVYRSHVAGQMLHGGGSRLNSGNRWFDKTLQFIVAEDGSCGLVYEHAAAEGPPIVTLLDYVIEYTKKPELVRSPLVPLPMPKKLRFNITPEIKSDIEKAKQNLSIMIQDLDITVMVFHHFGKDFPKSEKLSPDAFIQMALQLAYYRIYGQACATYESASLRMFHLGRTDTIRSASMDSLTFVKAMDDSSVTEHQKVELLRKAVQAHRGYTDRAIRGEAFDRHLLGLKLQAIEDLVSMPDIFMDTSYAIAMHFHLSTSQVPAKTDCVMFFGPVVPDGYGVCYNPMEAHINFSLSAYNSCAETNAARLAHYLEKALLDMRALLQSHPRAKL

[3] = target: T3, SFB-tagged ACSF3 (human) (UniProt Q4G176)
T3 sequence: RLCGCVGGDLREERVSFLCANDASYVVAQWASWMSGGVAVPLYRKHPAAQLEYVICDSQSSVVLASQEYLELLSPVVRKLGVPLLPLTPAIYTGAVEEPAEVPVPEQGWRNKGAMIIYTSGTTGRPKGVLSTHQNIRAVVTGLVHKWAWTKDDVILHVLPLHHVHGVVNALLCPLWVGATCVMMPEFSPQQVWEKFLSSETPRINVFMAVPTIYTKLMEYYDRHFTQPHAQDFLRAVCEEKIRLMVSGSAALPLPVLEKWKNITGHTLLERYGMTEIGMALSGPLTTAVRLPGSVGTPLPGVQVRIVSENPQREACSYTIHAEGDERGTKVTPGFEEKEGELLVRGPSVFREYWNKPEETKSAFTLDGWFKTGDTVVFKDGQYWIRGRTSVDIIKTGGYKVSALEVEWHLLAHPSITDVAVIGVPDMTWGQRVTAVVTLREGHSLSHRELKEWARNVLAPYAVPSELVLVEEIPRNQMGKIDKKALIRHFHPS

[4] = target: SFB-tagged ALAS1 (human) (UniProt P13196)
[5] = target: T4, SFB-tagged MLYCD (human) (UniProt O95822)
T4 sequence: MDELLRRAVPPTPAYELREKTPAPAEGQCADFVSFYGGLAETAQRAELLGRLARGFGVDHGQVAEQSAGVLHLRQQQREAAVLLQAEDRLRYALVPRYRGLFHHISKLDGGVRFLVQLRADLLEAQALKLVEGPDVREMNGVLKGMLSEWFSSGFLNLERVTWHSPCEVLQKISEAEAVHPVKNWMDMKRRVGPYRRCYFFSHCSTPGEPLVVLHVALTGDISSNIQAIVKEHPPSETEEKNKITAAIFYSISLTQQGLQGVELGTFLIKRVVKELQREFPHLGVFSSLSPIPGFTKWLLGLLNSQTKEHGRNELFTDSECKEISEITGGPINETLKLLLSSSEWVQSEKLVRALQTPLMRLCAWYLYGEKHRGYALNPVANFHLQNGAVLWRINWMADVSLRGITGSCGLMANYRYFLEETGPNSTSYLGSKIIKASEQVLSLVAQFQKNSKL

[6] = target: T5, SFB-tagged MMUT (human) (UniProt P22033)
T5 sequence: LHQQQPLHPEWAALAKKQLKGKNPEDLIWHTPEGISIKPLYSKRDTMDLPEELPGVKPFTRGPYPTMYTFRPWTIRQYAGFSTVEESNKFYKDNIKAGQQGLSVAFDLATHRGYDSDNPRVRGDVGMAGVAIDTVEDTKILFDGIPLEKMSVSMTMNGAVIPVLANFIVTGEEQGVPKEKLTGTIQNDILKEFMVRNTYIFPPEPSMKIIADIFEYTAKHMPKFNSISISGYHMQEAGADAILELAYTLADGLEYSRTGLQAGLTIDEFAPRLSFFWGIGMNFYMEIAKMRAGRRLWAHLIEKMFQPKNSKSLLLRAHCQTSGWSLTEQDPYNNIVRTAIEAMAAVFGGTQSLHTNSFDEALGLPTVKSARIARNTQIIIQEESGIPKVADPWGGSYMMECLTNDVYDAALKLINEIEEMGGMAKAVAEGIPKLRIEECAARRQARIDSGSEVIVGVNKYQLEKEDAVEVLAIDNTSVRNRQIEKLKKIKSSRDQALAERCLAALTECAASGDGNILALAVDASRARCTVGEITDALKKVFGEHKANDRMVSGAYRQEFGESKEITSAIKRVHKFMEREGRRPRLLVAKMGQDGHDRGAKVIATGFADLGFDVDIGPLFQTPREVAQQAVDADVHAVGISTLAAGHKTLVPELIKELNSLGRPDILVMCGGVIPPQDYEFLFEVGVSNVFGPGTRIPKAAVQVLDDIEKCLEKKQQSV

[7] = target: T6, SFB-tagged ALKBH7 (human) (UniProt Q9BT30)
T6 sequence: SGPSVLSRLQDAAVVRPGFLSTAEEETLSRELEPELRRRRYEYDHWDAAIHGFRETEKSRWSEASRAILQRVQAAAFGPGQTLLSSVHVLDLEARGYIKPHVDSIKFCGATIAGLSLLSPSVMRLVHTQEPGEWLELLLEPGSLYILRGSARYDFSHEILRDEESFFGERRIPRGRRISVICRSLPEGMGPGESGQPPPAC

Measured: binding

B1: Myc-tagged full-length NME4 (FL) (protein, UniProt O00746 29-187)
chain: GSGGPSWTRERTLVAVKPDGVQRRLVGDVIQRFERRGFTLVGMKMLQAPESVLAEHYQDLRRKPFYPALIRYMSSGPVVAMVWEGYNVVRASRAMIGHTDSAEAAPGTIRGDFSVHISRNVIHASDSVEGAQREIQLWFQSSELVSWADGGQHSSIHPA
binds: all assays above
